Taken from: PubChem BioAssay AID652243 (Drosophila RNAi Screening Center, 2013)
Purpose: 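Knock-downs that decrease or increase androgen receptor reporter signal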 (primary screen). Cell system: Drosophila S2R+ cells. Reagent: long dsRNA against Drosophila genes. Time to read-out: 72 h (48 h, then 24 h hormone). Conditions: synthetic androgen R1881 at 10 nM for 24 h. Measurement: 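Firefly light from an androgen-responsive reporter and Renilla control light per well, raw and unnormalised, for each of two replicates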. Direction: firefly reporter light: higher = more light from androgen-responsive reporter; Renilla control light: higher = more constitutive control signal (cell number, transfection). Rule for the call: 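Hit when the log firefly-to-Renilla ratio dropped or increased by a fixed fold versus the mean of GFP or LacZ controls across duplicate plates; lowering cut given as 1.5 and as 3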. Meaning of the calls: active = hit: reporter lowered or raised; inactive = no hit.
In all, the deposit lists about 24,000 reagents; below is an unselected part of those with a known target gene and a result. In the full data, 246 (1%) got an active call. 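Plates not normalised; calls are printed but the firefly/Renilla ratio behind them is not deposited; fold cut for lowering reported inconsistently.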 Raw values are not corrected between plates. Unmarked entries are inactive. The record does not give: the amount of reagent.

{"gene": "CG8858", "PubChem SID": "SID104187082", "firefly reporter light, replicate 1": 2.45e5, "firefly reporter light, replicate 2": 1.86e5, "Renilla control light, replicate 1": 1.43e6, "Renilla control light, replicate 2": 1.41e6}
{"gene": "CG42361", "PubChem SID": "SID104184183", "firefly reporter light, replicate 1": 3.50e5, "firefly reporter light, replicate 2": 2.69e5, "Renilla control light, replicate 1": 2.12e6, "Renilla control light, replicate 2": 1.52e6}
{"gene": "pasi2", "PubChem SID": "SID104196172", "firefly reporter light, replicate 1": 1.17e5, "firefly reporter light, replicate 2": 90284, "Renilla control light, replicate 1": 2.14e6, "Renilla control light, replicate 2": 1.98e6}
{"gene": "grn", "PubChem SID": "SID104196753", "firefly reporter light, replicate 1": 78013, "firefly reporter light, replicate 2": 41535, "Renilla control light, replicate 1": 1.34e6, "Renilla control light, replicate 2": 1.30e6}
{"gene": "grn", "PubChem SID": "SID104204373", "firefly reporter light, replicate 1": 3.05e5, "firefly reporter light, replicate 2": 3.67e5, "Renilla control light, replicate 1": 1.06e6, "Renilla control light, replicate 2": 8.17e5}
{"gene": "CG14965", "PubChem SID": "SID104188216", "firefly reporter light, replicate 1": 9.63e5, "firefly reporter light, replicate 2": 7.75e5, "Renilla control light, replicate 1": 1.03e6, "Renilla control light, replicate 2": 8.63e5}
{"gene": "CG42561", "PubChem SID": "SID104185468", "firefly reporter light, replicate 1": 1.60e5, "firefly reporter light, replicate 2": 2.03e5, "Renilla control light, replicate 1": 3.19e5, "Renilla control light, replicate 2": 2.72e5}
{"gene": "inaF-C", "PubChem SID": "SID104216372", "firefly reporter light, replicate 1": 9.07e5, "firefly reporter light, replicate 2": 6.08e5, "Renilla control light, replicate 1": 2.02e6, "Renilla control light, replicate 2": 1.36e6}
{"gene": "Surf6", "PubChem SID": "SID104195380", "firefly reporter light, replicate 1": 70494, "firefly reporter light, replicate 2": 63289, "Renilla control light, replicate 1": 5.49e5, "Renilla control light, replicate 2": 4.62e5}
{"gene": "Surf6", "PubChem SID": "SID104207981", "firefly reporter light, replicate 1": 5.33e5, "firefly reporter light, replicate 2": 5.22e5, "Renilla control light, replicate 1": 9.44e5, "Renilla control light, replicate 2": 9.44e5}
{"gene": "CG32379", "PubChem SID": "SID104190110", "firefly reporter light, replicate 1": 1.01e5, "firefly reporter light, replicate 2": 1.84e5, "Renilla control light, replicate 1": 1.06e6, "Renilla control light, replicate 2": 1.24e6}
{"gene": "Proc-R", "PubChem SID": "SID104198202", "firefly reporter light, replicate 1": 1.68e5, "firefly reporter light, replicate 2": 2.47e5, "Renilla control light, replicate 1": 2.49e6, "Renilla control light, replicate 2": 3.53e6}
{"gene": "Awh", "PubChem SID": "SID104187932", "firefly reporter light, replicate 1": 1.73e5, "firefly reporter light, replicate 2": 2.49e5, "Renilla control light, replicate 1": 1.83e6, "Renilla control light, replicate 2": 2.93e6}
{"gene": "pinta", "PubChem SID": "SID104194490", "firefly reporter light, replicate 1": 1.10e5, "firefly reporter light, replicate 2": 65110, "Renilla control light, replicate 1": 5.98e5, "Renilla control light, replicate 2": 5.45e5}

4 entries from above, reformatted:
| gene | PubChem SID | firefly reporter light, replicate 1 | firefly reporter light, replicate 2 | Renilla control light, replicate 1 | Renilla control light, replicate 2 |
| --- | --- | --- | --- | --- | --- |
| Surf6 | SID104195380 | 70494 | 63289 | 5.49e5 | 4.62e5 |
| Surf6 | SID104207981 | 5.33e5 | 5.22e5 | 9.44e5 | 9.44e5 |
| CG32379 | SID104190110 | 1.01e5 | 1.84e5 | 1.06e6 | 1.24e6 |
| Proc-R | SID104198202 | 1.68e5 | 2.47e5 | 2.49e6 | 3.53e6 |

Next records follow.
{"gene": "CG3091", "PubChem SID": "SID104198066", "firefly reporter light, replicate 1": 3.48e5, "firefly reporter light, replicate 2": 2.84e5, "Renilla control light, replicate 1": 2.66e6, "Renilla control light, replicate 2": 2.66e6}
{"gene": "CG1750", "PubChem SID": "SID104195032", "firefly reporter light, replicate 1": 85555, "firefly reporter light, replicate 2": 58305, "Renilla control light, replicate 1": 7.88e5, "Renilla control light, replicate 2": 4.03e5}
{"gene": "Sap30", "PubChem SID": "SID104199708", "firefly reporter light, replicate 1": 4.47e5, "firefly reporter light, replicate 2": 3.61e5, "Renilla control light, replicate 1": 3.09e6, "Renilla control light, replicate 2": 2.05e6}
{"gene": "CG6674", "PubChem SID": "SID104190484", "firefly reporter light, replicate 1": 9.92e5, "firefly reporter light, replicate 2": 8.34e5, "Renilla control light, replicate 1": 8.24e5, "Renilla control light, replicate 2": 8.61e5}
{"gene": "M1BP", "PubChem SID": "SID104196358", "firefly reporter light, replicate 1": 59436, "firefly reporter light, replicate 2": 1.21e5, "Renilla control light, replicate 1": 3.37e5, "Renilla control light, replicate 2": 4.29e5}
{"gene": "M1BP", "PubChem SID": "SID104207617", "firefly reporter light, replicate 1": 4.15e5, "firefly reporter light, replicate 2": 5.04e5, "Renilla control light, replicate 1": 1.12e6, "Renilla control light, replicate 2": 1.12e6}
{"gene": "CG4250", "PubChem SID": "SID104184247", "firefly reporter light, replicate 1": 1.32e5, "firefly reporter light, replicate 2": 1.88e5, "Renilla control light, replicate 1": 1.07e6, "Renilla control light, replicate 2": 1.38e6}
{"gene": "speck", "PubChem SID": "SID104184400", "firefly reporter light, replicate 1": 4.79e5, "firefly reporter light, replicate 2": 4.92e5, "Renilla control light, replicate 1": 1.41e6, "Renilla control light, replicate 2": 1.29e6}
{"gene": "speck", "PubChem SID": "SID104206198", "firefly reporter light, replicate 1": 3.46e5, "firefly reporter light, replicate 2": 4.76e5, "Renilla control light, replicate 1": 4.87e5, "Renilla control light, replicate 2": 8.67e5}
{"gene": "Hsp68", "PubChem SID": "SID104196504", "firefly reporter light, replicate 1": 1.85e5, "firefly reporter light, replicate 2": 2.28e5, "Renilla control light, replicate 1": 2.33e6, "Renilla control light, replicate 2": 1.95e6}
{"gene": "CG31139", "PubChem SID": "SID104201157", "firefly reporter light, replicate 1": 9.09e5, "firefly reporter light, replicate 2": 1.08e6, "Renilla control light, replicate 1": 3.46e5, "Renilla control light, replicate 2": 3.61e5}
{"gene": "Pli", "PubChem SID": "SID104196584", "firefly reporter light, replicate 1": 1.53e5, "firefly reporter light, replicate 2": 1.38e5, "Renilla control light, replicate 1": 1.10e6, "Renilla control light, replicate 2": 1.11e6}
{"gene": "CG5674", "PubChem SID": "SID104202533", "firefly reporter light, replicate 1": 9.84e5, "firefly reporter light, replicate 2": 1.01e6, "Renilla control light, replicate 1": 1.41e6, "Renilla control light, replicate 2": 1.12e6}
{"gene": "CG5674", "PubChem SID": "SID104206864", "firefly reporter light, replicate 1": 4.44e5, "firefly reporter light, replicate 2": 4.98e5, "Renilla control light, replicate 1": 1.08e6, "Renilla control light, replicate 2": 1.22e6}
